Test results: the supplement of paper PMC10727501
The list shows a part of the results. This data set is noisy: repeats of one test often differ as much as different tests do.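 Free-swimming zebrafish larvae were scored for O-bend response probability to dark flashes (naive: first five; training: remaining flashes of four 60-flash blocks; test: later 60-flash block) and for turning toward alternating leftward/rightward LED motion (OMR). Six treated larvae were compared with sixty 0.1% DMSO controls; |SSMD|≥2 defined a hit.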

Columns and labels:
Conditions in all cases: 10 µM; pre-incubation: 30-90 min
[1] = system: Danio rerio larvae (5 dpf, TLF); assay: OMR-Perf (SSMD vs DMSO vehicle); higher = higher than vehicle (e.g. higher dark-flash O-bend response probability, or better optomotor performance)
[2] = system: Danio rerio larvae (5 dpf, TLF); assay: Prob-Test (SSMD vs DMSO vehicle); higher = higher than vehicle (e.g. higher dark-flash O-bend response probability, or better optomotor performance)
[3] = system: Danio rerio larvae (5 dpf, TLF); assay: Prob-Naive (SSMD vs DMSO vehicle); higher = higher than vehicle (e.g. higher dark-flash O-bend response probability, or better optomotor performance)
[4] = system: Danio rerio larvae (5 dpf, TLF); assay: Prob-Train (SSMD vs DMSO vehicle); higher = higher than vehicle (e.g. higher dark-flash O-bend response probability, or better optomotor performance)

SMILES | OMR-Perf [1] | Prob-Test [2] | Prob-Naive [3] | Prob-Train [4]
CO[C@@H](C(=O)N1Cc2[nH]nc(NC(=O)c3ccc(N4CCN(C)CC4)cc3)c2C1)c1ccccc1 | -0.462 | -0.123 | 0.00409 | 0.273
COc1cc(OC)c(NC(=O)Nc2cc(C)on2)cc1Cl | 0.42 | 0.0902 | -0.933 | -1.91
Cc1nc2c([nH]1)-c1ccccc1N(C(=O)c1ccc(NC(=O)c3ccccc3-c3ccccc3)cc1)CC2.Cl [Conivaptan HCl] | -0.203 | -0.316 | 0.0956 | 0.0346
CN(C)CC/C=C1\c2ccccc2COc2ccc(CC(=O)O)cc21.Cl [Olopatadine HCl] | -0.0409 | 0.0237 | 0.644 | -0.0738
Cl.Cl.O=C(O)COCCN1CCN(C(c2ccccc2)c2ccc(Cl)cc2)CC1 (stereo not drawn) [Cetirizine DiHCl] | 0.272 | 0.565 | 0.581 | 0.383
COc1ccc(NS(=O)(=O)c2ccc(N)cc2)nn1 [Sulfamethoxypyridazine] | -0.0842 | -0.0136 | 0.448 | 0.241
Cn1c(=O)cc(N2CCCC(N)C2)n(Cc2cc(F)ccc2C#N)c1=O (stereo not drawn) [Trelagliptin] | 0.134 | 0.0526 | 0.248 | 0.0442
C[N+](C)(C)CCOC(N)=O.[Cl-] [Carbachol] | -0.000508 | 0.217 | -0.362 | 0.436
CN(C)CCN1C(=O)c2ccccc2N(C)c2ccccc21.Cl [Dibenzepine HCl] | -0.414 | -0.302 | 0.433 | -0.292
Br.CN1CCC[C@@H]1Cc1c[nH]c2ccc(CCS(=O)(=O)c3ccccc3)cc12 [Eletriptan HBr] | -0.466 | -0.109 | 0.389 | 0.372
C[C@@]1(c2cc(-c3cncnc3)c(F)cc2F)CCSC(N)=N1 | 0.211 | 0.339 | -0.245 | 0.0264
N#Cc1c(Oc2ccc(F)c(NC(=O)Cc3cccc(C(F)(F)F)c3)c2)ccc2nc(NC(=O)C3CC3)sc12 | 0.025 | 0.513 | 0.227 | 0.553
CC(=O)Nc1ncc([N+](=O)[O-])s1 [Nithiamide] | 0.336 | -0.427 | 0.134 | -0.421
COc1cc2nc(N3CCN(C(=O)c4ccco4)CC3)nc(N)c2cc1OC.Cl [Prazosin HCl] | -0.651 | -0.716 | -0.268 | -0.732
CN1C(C(=O)Nc2ccccn2)=C(O)c2ccccc2S1(=O)=O [Piroxicam] | -0.665 | -0.904 | -0.316 | -1.22
CCc1ccc(OCc2ccccc2C(=O)Nc2ccc3nc(C)cc(N)c3c2)cc1.Cl | -0.578 | -0.197 | -0.678 | -0.434
CCOC(=O)C1=C(COCCN)NC(C)=C(C(=O)OC)C1c1ccccc1Cl.O=S(=O)(O)c1ccccc1 (stereo not drawn) [Amlodipine besylate (Norvasc)] | -0.00296 | 0.808 | -0.525 | 0.0166
Cl.O=C(Nc1ccccc1)OCC(CN1CCCCC1)OC(=O)Nc1ccccc1 (stereo not drawn) [Diperodon HCl] | 0.225 | 0.29 | -0.00172 | 0.113
C[C@@H]1O[C@@H](OC[C@@H]2O[C@@H](Oc3c(-c4ccc(OCCO)c(OCCO)c4)oc4cc(OCCO)cc(O)c4c3=O)[C@H](O)[C@@H](O)[C@@H]2O)[C@H](O)[C@H](O)[C@H]1O [Troxerutin] | -0.111 | 0.227 | -0.0925 | 0.0304
CS(=O)(=O)O.N#CC1(c2ccc(NC(=O)c3cccnc3NCc3ccncc3)cc2)CCCC1 [Apatinib] | -0.497 | -0.0862 | 0.0878 | -0.568
Cc1cnc(C(=O)O)c[n+]1[O-] [Acipimox] | -0.35 | -0.416 | 0.184 | -0.636
O=C(O)[C@@H]1O[C@H](Oc2cc3oc(-c4ccccc4)cc(=O)c3c(O)c2O)[C@H](O)[C@@H](O)[C@@H]1O [Baicalin] | 0.154 | -0.353 | 0.285 | 0.245
O=C(c1cn(Cc2cncn2Cc2ccc(Br)cc2)cc1-c1cccc2ccccc12)N1CCOCC1 | -0.429 | -1.07 | 0.0696 | -0.114
COc1cc(OC2CCN(C)CC2)ccc1Nc1ncc2c(n1)n(C1CCCC1)c(=O)n2C | -0.195 | -0.18 | 0.106 | 0.0462
OCc1ccc(O[C@@H]2O[C@@H](CO)[C@@H](O)[C@H](O)[C@H]2O)cc1 [Gastrodin] | 0.684 | 0.426 | -0.0925 | 0.471
CC[C@H](NC(=O)[C@H](C)NC)C(=O)N1C[C@@H](O)C[C@H]1Cc1c(-c2[nH]c3cc(F)ccc3c2C[C@@H]2C[C@H](O)CN2C(=O)[C@H](CC)NC(=O)[C@H](C)NC)[nH]c2cc(F)ccc12 [Birinapant] | 0.0481 | 0.137 | 0.489 | -0.137

SMILES | OMR-Perf [1] | Prob-Test [2] | Prob-Naive [3] | Prob-Train [4]
CC(N)C12CC3CC(CC(C3)C1)C2 (stereo not drawn) [Rimantadine] | -0.331 | -0.444 | -0.265 | 0.0497
Cc1ccc(-c2cc(C(F)(F)F)nn2-c2ccc(S(N)(=O)=O)cc2)cc1 [Celecoxib] | -0.804 | -1.91 | -0.123 | -1.93
[O-][n+]1cccc(CO)c1 [Mepiroxol] | 0.138 | -0.0117 | 0.153 | 0.0302
CC(C)(O)CC(=O)NCCn1ccc2ncnc(Nc3ccc(Oc4cccc(C(F)(F)F)c4)c(Cl)c3)c21 | -0.802 | 0.581 | -0.571 | -0.388
CCOC(CN1CCN(CC(C)C(=O)c2ccccc2)CC1)c1ccccc1.Cl.Cl (stereo not drawn) [Eprazinone 2HCl] | -0.518 | -1.39 | 0.00488 | -0.539
CC(=O)S[C@@H]1CC2=CC(=O)CC[C@]2(C)[C@@H]2CC[C@@]3(C)[C@@H](CC[C@]34CCC(=O)O4)[C@@H]21 [Spironolactone] | -0.0892 | -0.379 | -0.0273 | -0.306
Cc1ccc(CNc2ncnc3ccc(-c4ccc(CO)o4)cc23)o1 | -0.0831 | 0.162 | -0.102 | -0.127
CC(C)(C#N)c1cc(Cn2cncn2)cc(C(C)(C)C#N)c1 [Anastrozole] | -0.266 | -0.215 | -0.138 | -0.214
CC(=O)OCC[N+](C)(C)C.[Cl-] [Acetylcholine Chloride] | -0.338 | 0.344 | 0.357 | 0.275
COc1cc(N2CCC(N3CCN(C)CC3)CC2)ccc1Nc1ncc(Cl)c(Nc2ccccc2S(=O)(=O)C(C)C)n1 | -0.0449 | 0.346 | 0.00409 | -0.603
C=CC(=O)Nc1cccc(Nc2nc(Nc3ccc(OCCOC)cc3)ncc2F)c1 | 0.226 | -0.591 | -0.801 | -0.463
CCc1ccc(CCOc2ccc(CC3SC(=O)NC3=O)cc2)nc1 (stereo not drawn) [Pioglitazone] | -0.254 | -0.799 | -0.163 | -0.786
O=C(O)c1ccc(Nc2ncc3c(n2)-c2ccc(Cl)cc2C(c2c(F)cccc2F)=NC3)cc1 | 0.0494 | -1.95 | -2.25 | -2.97
Nc1ccn([C@@H]2O[C@H](CO)[C@@H](O)[C@@H]2O)c(=O)n1 [Cytidine] | 0.173 | 0.346 | 0.375 | 0.295
NCCS(=O)(=O)O [Taurine] | -0.564 | -0.528 | -0.0745 | -0.311
CNC(=O)[C@@H](Cc1ccccc1)NC(=O)[C@@H](CC(C)C)[C@H](CSc1cccs1)C(=O)NO [Batimastat (BB-94)] | -0.485 | -0.0769 | 0.292 | -0.102
CC(COc1ccccc1)N(CCCl)Cc1ccccc1.Cl (stereo not drawn) [Phenoxybenzamine HCl] | -0.107 | -0.553 | -0.427 | 0.157
O=C(CCCN1CCN(c2ccccn2)CC1)c1ccc(F)cc1 [Azaperone] | -0.694 | 0.981 | 0.0839 | 1.69
COC1CCN(C(=O)c2cc(Cc3n[nH]c(=O)c4ccccc34)ccc2F)CC1 | -0.0251 | 0.44 | 0.446 | 0.558
CCCC(=O)O[C@@]1(C(=O)COC(C)=O)CC[C@H]2[C@@H]3C[C@H](F)C4=CC(=O)C=C[C@]4(C)[C@]3(F)[C@H](O)C[C@@]21C [Difluprednate] | 0.497 | -0.438 | -0.167 | -0.128
CCC(=O)O[C@@]1(C(=O)SCF)[C@H](C)C[C@H]2[C@@H]3C[C@H](F)C4=CC(=O)C=C[C@]4(C)[C@]3(F)[C@H](O)C[C@@]21C [Fluticasone propionate] | 0.61 | -0.0717 | -0.21 | 0.18
O=C([O-])C(O)[C@H](O)[C@@H](O)[C@H](O)[C@H](O)CO.O=C([O-])C(O)[C@H](O)[C@@H](O)[C@H](O)[C@H](O)CO.[Ca+2] (stereo partly drawn) [Calcium Gluceptate] | 0.71 | 0.248 | 0.457 | -0.143
CCCS(=O)(=O)Nc1ccc(F)c(C(=O)c2c[nH]c3ncc(Cl)cc23)c1F | 0.213 | -0.283 | -0.362 | -0.606
CCOc1cc(CC(=O)N[C@@H](CC(C)C)c2ccccc2N2CCCCC2)ccc1C(=O)O [Repaglinide] | -0.441 | -0.018 | 0.271 | 0.303
Nc1nnc(-c2cccc(Cl)c2Cl)c(N)n1 [Lamotrigine] | 0.0251 | 0.224 | 0.42 | -0.25
COc1ccc2cccc(CCNC(C)=O)c2c1 [Agomelatine] | -0.445 | -1.68 | -1.37 | -2.58

One compound at a time (already shown).
NCCS(=O)(=O)O [Taurine] as listed: OMR-Perf [1]: -0.564; Prob-Test [2]: -0.528; Prob-Naive [3]: -0.0745; Prob-Train [4]: -0.311
Nc1ccn([C@@H]2O[C@H](CO)[C@@H](O)[C@@H]2O)c(=O)n1 [Cytidine] as listed: OMR-Perf [1]: 0.173; Prob-Test [2]: 0.346; Prob-Naive [3]: 0.375; Prob-Train [4]: 0.295
CC(C)(C#N)c1cc(Cn2cncn2)cc(C(C)(C)C#N)c1 [Anastrozole] as listed: OMR-Perf [1]: -0.266; Prob-Test [2]: -0.215; Prob-Naive [3]: -0.138; Prob-Train [4]: -0.214
CNC(=O)[C@@H](Cc1ccccc1)NC(=O)[C@@H](CC(C)C)[C@H](CSc1cccs1)C(=O)NO [Batimastat (BB-94)] as listed: OMR-Perf [1]: -0.485; Prob-Test [2]: -0.0769; Prob-Naive [3]: 0.292; Prob-Train [4]: -0.102
